For 63 compounds, AC50 results are on record in PubChem BioAssay AID493014 (National Center for Advancing Translational Sciences (NCATS), 2011).

Molecules are shown by their SMILES. The list shows a part of the results. These are further read-outs of the screen, such as a control signal, another cell line or another target. No call is given for them. The list favours compounds with an active or inconclusive main result. Potencies come from curve fits of mixed quality, noted in brackets.

The nature of the test: qHTS Assay to Find Inhibitors of Chronic Active B-Cell Receptor Signaling. To be noted: ABC-DLBCL IkBa-CBG/CBR reporter, luminescence ratio (green luciferase fused to IkBa over red control in TMD8 lymphoma cells), 4 h. In outline: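 Compounds up to 46 uM were incubated four hours with TMD8 cells whose green CBG68 luciferase is fused to IkappaBalpha; red CBR luminescence normalised the signal, and concentration-effect curves were fitted to fusion, red and ratio data.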
(In qHTS, concentration-response curves come from the screen itself.)

The mark [1] stands for this setting: measured here: CBR red luminescence, cell number.
Setting [2] is: measured here: IkBa-CBG green luminescence.

One may read the AC50 as the concentration at which the activity in the assay is half-maximal. With `CCOc1ccc(NC(=S)NC(=O)/C=C/c2ccc(OC)c(OC)c2)c([N+](=O)[O-])c1`, the half-maximal activity concentration (AC50) under setting [1] is 35.5 µM [rising, single point].

As to `CCOc1cc2[nH]c(=S)n(CCCCC(=O)NCc3ccco3)c(=O)c2cc1OCC`, the AC50 under setting [1] was 0.92 µM [rising, full curve, poor fit].

Turning to `Cc1cc(C)n(/N=C/c2cccs2)c(=O)c1C#N`, the AC50 under setting [1] is 5.8 µM [rising, full curve].

Consider `Cc1nnc2ccc(-c3ccc(NS(=O)(=O)c4ccccc4[N+](=O)[O-])cc3)nn12`, for which the AC50 is 6.51 µM [rising, partial curve] under setting [1] and 11.6 µM [falling, partial curve] under setting [2].

Take `N=c1c2c(-c3ccccc3)c(-c3ccccc3)oc2ncn1CCN1CCOCC1`: under setting [1], the AC50 was 35.5 µM [falling, single point].

With `Fc1ccc(-c2cc(-c3ccccc3)nc(-n3cccn3)n2)cc1`, the concentration at half-maximal activity (AC50) under setting [1] was 11.2 µM [falling, partial curve, poor fit].

As to `O=C(Nc1cccnc1)c1sc2cccc(F)c2c1Cl`, the AC50 under setting [1] is 3.16 µM [rising, partial curve].

As to `COc1ccc(/C=N/NS(=O)(=O)c2ccccc2)cc1OS(=O)(=O)c1ccc(C)cc1`, the concentration at half-maximal activity (AC50) under setting [1] is 23.1 µM [falling, single point].

Take `CCOC(=O)c1c(NC(=O)c2ccco2)n(C2CCCCC2)c2nc3ccccc3nc12`: under setting [1], the AC50 was 1.58 µM [rising, partial curve, poor fit].

Consider `NNC(=O)[C@H](Cc1ccccc1)NC(=O)NCCc1ccccc1`, for which, under setting [1], the concentration at half-maximal activity (AC50) is 0.562 µM [rising, full curve, poor fit].

On to `Cc1cc(NC(=O)COC(=O)CCS(=O)(=O)c2ccc(C)c(C)c2)no1`, for which the concentration at half-maximal activity (AC50) under setting [1] is 35.5 µM [falling, partial curve, poor fit].

Take `Cn1c(SCC(=O)N2CCN(Cc3ccccc3)CC2)nnc1-c1ccncc1`: the half-maximal activity concentration (AC50) under setting [1] was 0.13 µM [rising, full curve, poor fit].

Turning to `c1ccc(CO/N=C(\c2ccc(C3CC3)nc2)C2CC2)cc1`, the AC50 under setting [1] was 25.1 µM [rising, single point].

Take `CC(C)Oc1cccc(-c2cc(C(=O)N3CCN(S(C)(=O)=O)CC3)c3ccccc3n2)c1`: under setting [1], the AC50 was 4.11 µM [rising, single point].

Turning to `Cc1cc[n+](-c2[nH]c(=O)sc2/C=N/N=C(\[O-])CCn2c3ccccc3c3ccccc32)cc1`, the half-maximal activity concentration (AC50) under setting [1] was 3.16 µM [rising, partial curve].

As to `CCCc1cnc(N2CCN(C(=O)c3ccc(F)cc3)CC2)nc1`, the AC50 under setting [1] was 0.631 µM [rising, partial curve, poor fit].

For `O=C(NNC(=O)c1ccccc1O)c1ccc(-c2ccc([N+](=O)[O-])cc2)o1`, the AC50 under setting [1] is 20.6 µM [falling, single point].

`Cc1ccc(CNC(=O)Cc2ccc(Br)cc2)cc1`: the AC50 under setting [1] was 3.16 µM [rising, full curve].

On to `COc1ccc(/C=C2/N=C3CCCCCN3C2=O)cc1`, for which, under setting [1], the AC50 was 2.51 µM [rising, partial curve].

On to `COc1ccc(C(=O)OCC(=O)NCCN2C(=O)CSC2=O)cc1[N+](=O)[O-]`, for which the half-maximal activity concentration (AC50) under setting [1] is 0.00461 µM [rising, full curve, poor fit].

As to `CCOc1ccccc1N=Cc1c(O)c2ccccc2oc1=O`, the AC50 under setting [1] is 3.98 µM [falling, full curve].

Take `O=C(/C=C/c1ccccc1Cl)N(Cc1ccc(Cl)cc1)C1CCS(=O)(=O)C1` (centres undefined): the concentration at half-maximal activity (AC50) runs as follows: under setting [1], 29.1 µM [falling, single point]; under setting [2], 32.6 µM [rising, partial curve, poor fit].

`Cc1oc(-c2ccc(Cl)cc2)cc1-c1nn2c(-c3ccoc3C)nnc2s1`: under setting [1], the concentration at half-maximal activity (AC50) was 1.16 µM [falling, full curve].

As to `Cc1cc(C)n(CC(O)Cn2c3ccccc3c3ccccc32)c(=O)n1` (centres undefined), the AC50 under setting [1] was 10 µM [falling, partial curve, poor fit].

On to `O=C(CSc1nnc(-c2ccccc2)o1)N1CCCCC1`, for which the AC50 under setting [1] was 12.6 µM [falling, single point].

Take `CN(C)c1nc(OCCNC(=O)Nc2ccccc2)nc(N(C)C)n1`: under setting [1], the AC50 is 4.47 µM [rising, partial curve, poor fit].

With `COc1cc(-c2noc(C)c2C#Cc2nccn2C)cc(OC)c1OC`, the concentration at half-maximal activity (AC50) under setting [1] was 7.08 µM [falling, full curve].

Regarding `CCOC(=O)C1=C(C)C(c2cccc(Oc3ccccc3)c2)NC(=S)N1` (centres undefined), under setting [1], the half-maximal activity concentration (AC50) was 29.1 µM [falling, single point].

`CCOc1ccc(S(=O)(=O)NCC(c2cccs2)S(=O)(=O)c2ccc(C)cc2)cc1` (centres undefined): the concentration at half-maximal activity (AC50) under setting [1] was 0.1 µM [falling, full curve, poor fit].

For `CN(C1=C(NC(=O)c2ccc(Cl)cc2)C(=O)c2ccccc2C1=O)c1ccccc1`, the concentration at half-maximal activity (AC50) under setting [1] was 6.51 µM [falling, partial curve, poor fit].

Consider `O=C(NCc1ccco1)C1CC(c2ccc(F)cc2)=NO1` (centres undefined), for which the AC50 under setting [1] is 35.5 µM [falling, single point].

`S=c1[nH]nc(-c2ccccc2)n1C1C=CCCC1` (centres undefined): the half-maximal activity concentration (AC50) under setting [2] was 31.6 µM [falling, single point].

Turning to `CC(C)c1nnc(NC(=O)C2c3ccccc3Oc3ccccc32)s1`, under setting [1], the AC50 was 7.31 µM [falling, partial curve, poor fit].

In the case of `CCC(=O)Nc1cccc(C(=O)/C=C/c2cc(Br)ccc2OC)c1`, the AC50 under setting [1] was 23.1 µM [falling, partial curve, poor fit].

On to `CC(C)NC(=O)CSc1ncccc1-c1nc2ccccc2[nH]1`, for which the AC50 under setting [1] is 3.16 µM [falling, full curve, poor fit].

As for `Cc1c(C(=O)Nc2ccccc2F)cnn1-c1ccccc1`, under setting [1], the half-maximal activity concentration (AC50) was 7.08 µM [falling, partial curve].

Regarding `CC(=O)Nc1cccc(NS(=O)(=O)c2cn(C)c(=O)n(C)c2=O)c1`, under setting [1], the concentration at half-maximal activity (AC50) was 1 µM [rising, full curve, poor fit].

In the case of `CCC(=O)Nc1nc(C)c(-c2csc(Nc3ccccn3)n2)s1`, the concentration at half-maximal activity (AC50) under setting [1] is 12.6 µM [falling, partial curve].

Turning to `O=C(O)c1ccc(N/N=C/c2ccc(-c3ccc(Cl)cc3Cl)o2)cc1`, the AC50 under setting [1] is 0.178 µM [falling, partial curve, poor fit].

In the case of `COc1ccccc1NC(=O)Nc1ccc(Br)cn1`, the AC50 under setting [1] was 4.47 µM [falling, full curve, poor fit].

On to `Cn1nnnc1SCCNCc1ccccc1F`, for which the concentration at half-maximal activity (AC50) under setting [1] was 23.1 µM [falling, single point].

With `CCn1c(SCc2nc3ccccc3c(=O)[nH]2)nnc1-c1cccnc1`, under setting [1], the AC50 was 7.31 µM [rising, partial curve].

For `c1cnc2c(OCc3nc4ccccc4[nH]3)cccc2c1`, the AC50 under setting [2] was 2.31 µM [rising, partial curve, poor fit].

For the compound `Cc1ccc2c(c1)C(O)(C1COC(C)(C)CC1=O)C(=O)N2C` (centres undefined), the AC50 by setting is: under setting [1], 31.6 µM [rising, single point]; under setting [2], 25.1 µM [falling, single point].

For `O=C(N/N=C/c1ccc2nccnc2c1)c1ccc(Br)cc1`, the concentration at half-maximal activity (AC50) under setting [1] is 6.31 µM [falling, single point].

In the case of `N/C(=N/OC(=O)c1ccccc1Cl)c1ncc([N+](=O)[O-])s1`, the AC50 was 12.6 µM [falling, single point] under setting [1] and 12.6 µM [rising, partial curve, poor fit] under setting [2].

As for `O=C(Nc1ccc(F)cc1)N1CCc2ccccc2C1`, under setting [1], the AC50 is 15.8 µM [falling, partial curve].

For the compound `Cc1cc(NC(=O)c2cc(C(C)C)on2)no1`, under setting [1], the half-maximal activity concentration (AC50) is 15.8 µM [falling, single point].

As to `CC(/C=N/NC(=O)c1cnccn1)=C\c1ccco1`, the concentration at half-maximal activity (AC50) under setting [1] was 35.5 µM [falling, single point].

As for `C/C(CC(=O)NC1CCCCC1)=N\NC(=O)c1ccccn1`, the half-maximal activity concentration (AC50) under setting [1] is 7.08 µM [falling, partial curve].

For `CCc1ccnc(NC(=O)Nc2ccc(OCc3ccccc3)cc2)c1`, under setting [1], the concentration at half-maximal activity (AC50) was 12.6 µM [rising, partial curve].

As for `Nc1nc(-c2ccccc2)c(-c2ccccc2)o1`, the AC50 under setting [1] was 6.31 µM [rising, single point].

In the case of `Cc1noc(NS(=O)(=O)c2ccc(N/C=C\C(=O)c3cccs3)cc2)c1C`, the AC50 under setting [1] is 35.5 µM [falling, single point].

On to `COc1ccc(-c2csc(N3CCOCC3)n2)cc1OC`, for which, under setting [1], the AC50 was 20.6 µM [rising, partial curve].

As to `CCc1ccc(/C=c2\s/c(=C\C(=O)C(C)(C)C)[nH]c2=O)cc1`, the AC50 under setting [1] was 0.461 µM [rising, full curve, poor fit].

In the case of `O=C1NCC2=C1C(c1ccccc1)Nc1ccccc1N2` (centres undefined), the AC50 under setting [1] is 14.1 µM [falling, single point].

On to `CCOC(=O)C1=C(c2ccccc2)O/C(=C(/C#N)C(F)(F)F)S1`, for which the half-maximal activity concentration (AC50) under setting [1] was 18.4 µM [rising, partial curve, poor fit].

As to `COc1cc(NC(=O)c2nccnc2N)cc(C(=O)Nc2cccc(C(F)(F)F)c2)c1`, under setting [1], the AC50 is 12.6 µM [rising, single point].

Turning to `COc1ccc(CCNC(=O)c2cc3c(=O)n4cccc(C)c4nc3n(Cc3ccco3)c2=N)cc1OC`, the half-maximal activity concentration (AC50) was 11.2 µM [falling, partial curve] under setting [1] and 28.2 µM [falling, single point] under setting [2].

`CCC1=NN(C(=O)c2ccc(Br)cc2)C(O)(c2ccccc2)C1` (centres undefined): the AC50 under setting [1] was 18.4 µM [falling, single point].

For the compound `CN(C)c1ccc(C(CNS(=O)(=O)c2ccc3ccccc3c2)c2c[nH]c3ccccc23)cc1` (centres undefined), under setting [1], the concentration at half-maximal activity (AC50) is 29.1 µM [falling, single point].

On to `N#CCSc1ncnc2ccccc12`, for which, under setting [1], the concentration at half-maximal activity (AC50) was 12.6 µM [falling, partial curve].

Regarding `CN1CCN(C2=Cc3ccc(Cl)cc3Sc3ccc(F)cc32)CC1`, the AC50 reads like this: under setting [1], 16.4 µM [falling, partial curve]; under setting [2], 25.9 µM [rising, partial curve, poor fit].
